Test results taken from article PMC11032339.

Chains of the proteins cited; added tags and fusions are not shown. Residues count along the entry.
UniProt P04275, residues 764-2813: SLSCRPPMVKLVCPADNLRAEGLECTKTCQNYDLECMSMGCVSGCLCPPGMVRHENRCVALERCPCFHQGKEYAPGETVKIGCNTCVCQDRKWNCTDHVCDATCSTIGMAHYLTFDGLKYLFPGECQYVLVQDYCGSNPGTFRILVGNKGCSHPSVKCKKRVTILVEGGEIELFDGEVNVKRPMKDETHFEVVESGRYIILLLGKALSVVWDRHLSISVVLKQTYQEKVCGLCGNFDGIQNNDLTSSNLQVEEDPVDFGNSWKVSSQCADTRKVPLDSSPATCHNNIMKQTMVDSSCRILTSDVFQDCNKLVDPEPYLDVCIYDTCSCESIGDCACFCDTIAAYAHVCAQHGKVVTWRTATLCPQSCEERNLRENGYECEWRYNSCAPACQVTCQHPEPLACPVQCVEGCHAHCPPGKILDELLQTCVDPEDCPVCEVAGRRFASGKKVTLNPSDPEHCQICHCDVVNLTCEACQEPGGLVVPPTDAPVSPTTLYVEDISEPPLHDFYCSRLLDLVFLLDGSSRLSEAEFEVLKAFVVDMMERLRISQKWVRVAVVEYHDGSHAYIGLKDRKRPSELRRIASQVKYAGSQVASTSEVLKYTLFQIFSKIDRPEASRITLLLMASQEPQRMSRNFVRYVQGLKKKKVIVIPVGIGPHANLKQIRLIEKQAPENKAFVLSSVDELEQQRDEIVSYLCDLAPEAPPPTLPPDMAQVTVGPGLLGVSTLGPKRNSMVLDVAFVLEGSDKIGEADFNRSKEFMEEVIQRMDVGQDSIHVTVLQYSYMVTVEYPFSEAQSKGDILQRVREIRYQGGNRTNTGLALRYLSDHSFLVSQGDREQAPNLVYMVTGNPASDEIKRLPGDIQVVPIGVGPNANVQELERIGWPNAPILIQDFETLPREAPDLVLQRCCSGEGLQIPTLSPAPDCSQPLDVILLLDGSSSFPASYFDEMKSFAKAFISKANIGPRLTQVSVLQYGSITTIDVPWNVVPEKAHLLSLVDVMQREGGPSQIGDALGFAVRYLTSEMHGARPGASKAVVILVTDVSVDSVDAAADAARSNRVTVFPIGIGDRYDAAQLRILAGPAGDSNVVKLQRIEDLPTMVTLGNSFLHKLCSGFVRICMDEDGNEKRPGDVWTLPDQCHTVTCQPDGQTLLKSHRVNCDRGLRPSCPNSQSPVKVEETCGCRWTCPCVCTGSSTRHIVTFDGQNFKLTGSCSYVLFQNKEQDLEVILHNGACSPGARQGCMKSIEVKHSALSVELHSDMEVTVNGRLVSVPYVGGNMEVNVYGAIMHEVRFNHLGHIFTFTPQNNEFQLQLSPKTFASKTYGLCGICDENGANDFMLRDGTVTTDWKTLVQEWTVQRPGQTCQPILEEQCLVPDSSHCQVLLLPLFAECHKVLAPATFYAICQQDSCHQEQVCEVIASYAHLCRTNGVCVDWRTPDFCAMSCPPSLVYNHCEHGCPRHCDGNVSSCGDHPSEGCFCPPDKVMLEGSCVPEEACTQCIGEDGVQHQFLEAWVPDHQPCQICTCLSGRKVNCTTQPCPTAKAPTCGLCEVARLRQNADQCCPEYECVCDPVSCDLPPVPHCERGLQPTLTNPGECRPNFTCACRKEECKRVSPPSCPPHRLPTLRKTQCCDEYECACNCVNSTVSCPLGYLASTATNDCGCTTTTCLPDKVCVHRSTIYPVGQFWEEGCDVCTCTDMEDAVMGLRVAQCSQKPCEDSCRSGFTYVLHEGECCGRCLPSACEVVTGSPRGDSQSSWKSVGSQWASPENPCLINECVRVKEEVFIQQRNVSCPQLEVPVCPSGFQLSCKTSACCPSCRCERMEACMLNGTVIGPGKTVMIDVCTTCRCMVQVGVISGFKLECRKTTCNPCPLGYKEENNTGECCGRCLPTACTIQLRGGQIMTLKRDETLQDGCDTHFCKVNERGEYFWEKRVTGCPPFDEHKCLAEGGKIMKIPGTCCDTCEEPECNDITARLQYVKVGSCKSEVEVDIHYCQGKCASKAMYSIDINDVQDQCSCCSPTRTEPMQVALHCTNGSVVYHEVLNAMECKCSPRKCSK

Biological target: T1, ADAMTS13-BirA* fusion protein (UniProt Q76LX8)
T1 sequence: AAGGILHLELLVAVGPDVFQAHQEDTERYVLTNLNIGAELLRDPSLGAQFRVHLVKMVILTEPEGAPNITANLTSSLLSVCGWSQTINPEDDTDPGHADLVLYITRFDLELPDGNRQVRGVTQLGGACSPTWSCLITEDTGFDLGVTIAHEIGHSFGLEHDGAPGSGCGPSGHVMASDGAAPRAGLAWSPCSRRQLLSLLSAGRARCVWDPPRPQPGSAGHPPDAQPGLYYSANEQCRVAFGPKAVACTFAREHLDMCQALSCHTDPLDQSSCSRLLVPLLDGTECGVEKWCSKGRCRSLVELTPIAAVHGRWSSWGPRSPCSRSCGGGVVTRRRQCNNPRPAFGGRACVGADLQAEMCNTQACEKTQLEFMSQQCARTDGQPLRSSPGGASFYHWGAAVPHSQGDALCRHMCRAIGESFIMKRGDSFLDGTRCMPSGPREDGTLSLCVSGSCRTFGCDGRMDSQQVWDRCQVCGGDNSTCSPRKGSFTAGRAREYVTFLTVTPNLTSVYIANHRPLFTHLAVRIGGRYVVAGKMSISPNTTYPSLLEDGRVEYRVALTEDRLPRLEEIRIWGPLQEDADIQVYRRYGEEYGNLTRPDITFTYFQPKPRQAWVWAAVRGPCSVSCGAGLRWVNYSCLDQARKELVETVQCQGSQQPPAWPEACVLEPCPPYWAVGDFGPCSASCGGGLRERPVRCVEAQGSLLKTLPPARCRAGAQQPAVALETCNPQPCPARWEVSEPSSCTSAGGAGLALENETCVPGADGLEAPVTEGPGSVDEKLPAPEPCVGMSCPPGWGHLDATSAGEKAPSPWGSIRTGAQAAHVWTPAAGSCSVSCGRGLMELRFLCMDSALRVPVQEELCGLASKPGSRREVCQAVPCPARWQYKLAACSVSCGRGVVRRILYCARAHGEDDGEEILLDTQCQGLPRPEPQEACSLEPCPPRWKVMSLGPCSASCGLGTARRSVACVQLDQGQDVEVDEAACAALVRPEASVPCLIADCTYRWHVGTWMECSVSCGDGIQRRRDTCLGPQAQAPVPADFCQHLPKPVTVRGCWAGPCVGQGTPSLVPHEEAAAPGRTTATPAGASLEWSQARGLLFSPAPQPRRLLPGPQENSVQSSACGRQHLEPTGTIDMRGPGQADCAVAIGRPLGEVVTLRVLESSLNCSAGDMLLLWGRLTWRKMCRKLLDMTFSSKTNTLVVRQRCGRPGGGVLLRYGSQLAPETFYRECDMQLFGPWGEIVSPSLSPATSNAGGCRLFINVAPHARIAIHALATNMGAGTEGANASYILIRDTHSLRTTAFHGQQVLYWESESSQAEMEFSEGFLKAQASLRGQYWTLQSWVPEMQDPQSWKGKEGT
Assay: proximity labelling; plasma BioID: 100 nM ADAMTS13-BirA* (controls: BirA*, no protein) in citrated pooled normal plasma, 1 mM ATP every hour, 50 µM biotin, 37 °C, 4 h; streptavidin-agarose pull-down, trypsin digest, LC-MS/MS; 5 independent reactions; only the target purified

binding	Substance
binds	Von Willebrand Factor (in plasma) (from UniProt P04275 764-2813)
binds	Plasminogen (in plasma) (human (endogenous in plasma))

Results are given in words; binding and its absence hold for the method and conditions named. Binding seen in cells or lysates may run through a third protein. These calls come from enrichment with a bait or labelling near it, and not all partners need be listed. Where a sequence is shown, tags or fusion partners need not be part of it.
